Data as given in US8881823B2, “Environmentally friendly low temperature breaker systems and related methods” (Halliburton Energy Services, Inc., priority 2011, dated 2014).

How the values were obtained:
[1] = Corrosion test of breaker systems in NaBr brine; conditions: 10% breaker in 11 lb/gal NaBr brine, non-buffered, 7 days
[2] = Filter cake removal on aloxide disk; conditions: 20% breaker

Row | SMILES | Corrosion Rate, mm/yr ([1]; 105° F.) | Corrosion Rate, mm/yr ([1]; 150° F.) | uniformity of filter cake removal ([2]; soaking 16 hours at 100° F. or 150° F.) | amount of filter cake removed from the aloxide disk ([2]; soaking 16 hours)
1 | O=C(O)CN(CCN(CC(=O)O)CC(=O)O)CC(=O)O [EDTA, reference compound] | 24.7 mm/yr | 60.2 mm/yr | effective in uniformly removing the filter cake | –
2 | O=C(O)CC[C@@H](C(=O)O)N(CC(=O)O)CC(=O)O [GLDA, L-glutamic acid N,N-diacetic acid] | 7.6 mm/yr | 19.1 mm/yr | – | approximately 60%
